Like-named read-outs stand apart in the source and are kept apart here. At least one structure is not confirmed: it was looked up by name or label, or the drawing left a doubt.
System: fluconazole-resistant C. albicans
Assay type: cell-based, Candida albicans
Design: unit not given beside the values
Description: Candida yeasts (C. albicans, C. glabrata, C. dubliensis, C. tropicalis, C. kefyr, C. krusei and C. parapsilosis—donated by Dr. H. Koenig, Hôpital Civil, Strasbourg), fluconazole-resistant C. albicans (n^o245962, n^o2332, n^o246335 and n^o3552, donated by Drs. J.Meis and J. Mouton, University Hospital, Microbiology Department, Nijmegen, Netherlands), and Cryptoccocus neoformans (donated by Dr. H. Koenig, Hôpital Civil, Strasbourg) were seeded on Sabouraud-Cloramphenicol Agar slant gelose (Biomerieux) and left to incubate for 24 h at 30° C. (Candida sp.) and for 72 h at 37° C. (Cryptoccocus neoformans).
Some yeast colonies were placed in suspension in liquid Sabouraud medium (Biomerieux) to obtain a final concentration of 0.1 OD at 600 nm corresponding to 2.5.10^6 yeasts/ml.
The yeast suspension was adjusted to 5.10^3 yeast/ml in Sabouraud medium.
100 μl of peptide dilutions (concentration of 50 with 0.097 μg/ml peptide) were deposited in microtitration plates. After adding […] of yeast suspension with 5.10^3 yeast/ml i.e. 500 yeasts, the test plates were incubated 24 h at 30° C. (Candida) under slow shaking or 72 h at 37° C. (Cryptoccocus).
Determination of minimal inhibiting concentrations (MIC) was made by measuring absorbency at 600 nm using a spectrophotometer-microtitration plate reader. The MIC score was set at a growth inhibition rate of 50%.

In the case of `CCC(C)n1ncn(-c2ccc(N3CCN(c4ccc(OCC5COC(Cn6cncn6)(c6ccc(Cl)cc6Cl)O5)cc4)CC3)cc2)c1=O` (stereo not shown) [itraconazole], the MIC (fluconazole-resistant C. albicans n° 2332) is reported as 0.5-0.25, the MIC (fluconazole-resistant C. albicans n° 3552) is reported as 1-0.5 and the MIC (fluconazole-resistant C. albicans n° 245962) is reported as 1-0.5. For the same molecule, the MIC (fluconazole-resistant C. albicans n° 246335) was 0.5-0.25.

Reference: patent publication US20030208035A1, “Antifungal and/or antibacterial peptides, preparation methods, compositions containing same and methods of treating mammals and/or plants” (priority 2000, published 2003)
